Measured values reported in PMC12350928.
These are yes or no findings as the source states them, for the method shown. In cells and extracts the contact can be indirect. Some results given as binding are weak or reduced against the parent protein; the word gives no strength.

Protein sequences, listed by entry. Tags and fused reporters are not part of them.
UniProt P54578: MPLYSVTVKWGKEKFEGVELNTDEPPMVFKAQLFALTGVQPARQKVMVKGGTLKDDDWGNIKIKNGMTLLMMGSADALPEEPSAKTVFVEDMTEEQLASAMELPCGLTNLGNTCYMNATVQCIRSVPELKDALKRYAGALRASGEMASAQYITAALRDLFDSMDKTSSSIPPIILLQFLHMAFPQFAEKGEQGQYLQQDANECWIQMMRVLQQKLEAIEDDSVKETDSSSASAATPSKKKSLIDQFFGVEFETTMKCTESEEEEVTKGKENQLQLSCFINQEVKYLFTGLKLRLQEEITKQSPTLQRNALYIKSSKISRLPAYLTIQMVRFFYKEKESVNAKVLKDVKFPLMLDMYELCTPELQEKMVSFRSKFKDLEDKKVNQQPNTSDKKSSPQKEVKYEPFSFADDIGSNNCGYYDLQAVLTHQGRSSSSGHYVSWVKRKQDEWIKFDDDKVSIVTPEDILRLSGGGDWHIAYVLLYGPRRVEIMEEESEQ

Experiments:
Flag-USP14 = Flag-USP14 (UniProt P54578); assay: co-IP; HEK293T cells co-transfected with Flag-USP14, His-UCHL5 and GFP-PKCα; immunoprecipitated with antibodies against Flag, His and GFP
His-UCHL5 = His-UCHL5 (UniProt Q9Y5K5); assay: as above
[1] = biological target: UCHL5 (endogenous) (human (endogenous in CAL62)) (UniProt Q9Y5K5); assay: co-IP; endogenous proteins in CAL62 lysate; immunoprecipitated with specific antibodies against USP14, UCHL5 or PKCα (IgG negative control), Protein A/G magnetic beads, RIPA buffer, 4 °C
[2] = biological target: USP14 (endogenous) (human (endogenous in CAL62)) (UniProt P54578); assay: as above

| binding (Flag-USP14) | binding (His-UCHL5) | binding [1] | binding [2] | Substance |
| --- | --- | --- | --- | --- |
| binds | binds | – | – | GFP-PKCα (from UniProt P17252 1-672) (enzyme) |
| – | – | binds | binds | PKCα (endogenous) (from UniProt P17252 1-672) (enzyme) |
